Experiment [1] is described as follows: Catalepsy wire mesh, rat, max. The format is in vivo, male. The note with it: catalepsy ED50 (s.c.) / amphetamine antagonism ED50 (i.p.), rats. As to the method:
Catalepsy wire mesh, rat, max. (ED50 mg/kg s.c.)
A vertical wire netting (50 cm×49 cm). The meshes (openings) of the netting are square (1 cm×1 cm). The wire diameter is 2 mm.
The animals are labeled and used in groups of five. The test substance is injected subcutaneously (s.c.) (5 ml/kg) at 4 dose levels selected from the fixed dose scale.
The animals are placed in the middle of the vertical wire netting 60, 120, 180, 240, 300 and 360 minutes after injection of the test compound. The animals are considered cetaleptic when they remain immobile during a period of 15 seconds. This cataleptic reaction is designated +. If the rats are "atonic" and passively slides down the wire mesh they are considered not cataleptic. If the animals climb up and down the wire mesh they are nor cataleptic. In both situations the designation - is used.

In another experiment the target is Muscarinic. Kind of experiment: Muscarinic affinity binding (3H-PrBCM, whole brain P2 fraction). Also on record: species or system Rats. The note with it: displacement of specific 3H-PrBCM binding by 50%; rat brain, pH 7.4, 30° C.; read-out: Muscarine affinity (IC50). As to the method: Muscarinic affinity binding
Sodium thiosulphate 10 mM (2.48 g/1000 ml) ^3 H-PrBCM (N-2'-chloroethyl-N-[2", 3"-^3 H2 ] propyl-2-aminoethylbenzilate,spec. act. ~28 Ci/mM).
A rat is killed by a blow on the head and exsanguinated. The whole brain is removed and homogenized in 10 volumes of ice cold 0.32 M sucrose with a hand homogenizer. The homogenate is centrifuged at 600 g for 10 minutes (4° C.) and the pellet discarded. The supernatant is then centrifuged at 25000 g for 55 minutes (4° C.). The pellet fraction (P2) is resuspended in the same volume of 0.32 M sucrose as previously used and stored on ice.
The aziridinium ion of ^3 H-propylbenzilyllcholine mustard (^3 H-PrBCM) is prepared by cyclization at a concentration of 130 nM in 15 mM Na-phosphate buffer (pH 7.4) for 50 minutes at 20° C. The reaction is terminated by addition of 100 volumes of ice cold buffer.
The incubation is continued for 15 minutes and stopped by addition of 20 ml 100 mM phosphate buffer containing 10 mM sodium thiosulphate. The samples are filtered through Whatman GF/C glass fiber filters and washed with 30 ml ice cold 100 mM phosphate buffer. The filters with synaptosomes are transferred to scintillation vials and the radio-activity measured by liquid scintillation counting after addition of 10 ml Instal-Gel (Packard Inst.). All experiments are performed in triplicate. […]

We go through one compound from patent US4235916A, “2-Methylthio-6-fluoro-9-(1-methyl-4-piperidylidene)-thioxanthene and salts thereof, neuroleptic compositions and method of use” (Kefalas A/S, priority 1977, dated 1980).

As a reminder, the IC50 is the concentration that gives 50% inhibition.

In the case of `OCCN1CCN(CCCN2c3ccccc3Sc3ccc(C(F)(F)F)cc32)CC1` [fluphenazine], the “Ratio Catalep./Amphetam. antag.” value in experiment [1] is reported as 1.2. For the same compound, at Muscarinic, the IC50 was determined as 8 µM.
